Binding data for two substances are collected here from publication PMC7325376.

Amino acid sequences for entries named in this document (tags omitted).
UniProt Q9BUT1: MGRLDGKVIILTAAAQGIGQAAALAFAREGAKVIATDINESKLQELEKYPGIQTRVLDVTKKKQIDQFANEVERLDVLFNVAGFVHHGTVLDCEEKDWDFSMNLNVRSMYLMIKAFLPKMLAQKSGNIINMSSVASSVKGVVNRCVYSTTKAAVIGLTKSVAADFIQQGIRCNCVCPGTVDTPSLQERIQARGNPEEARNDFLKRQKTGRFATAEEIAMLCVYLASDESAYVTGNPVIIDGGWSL
UniProt Q14145: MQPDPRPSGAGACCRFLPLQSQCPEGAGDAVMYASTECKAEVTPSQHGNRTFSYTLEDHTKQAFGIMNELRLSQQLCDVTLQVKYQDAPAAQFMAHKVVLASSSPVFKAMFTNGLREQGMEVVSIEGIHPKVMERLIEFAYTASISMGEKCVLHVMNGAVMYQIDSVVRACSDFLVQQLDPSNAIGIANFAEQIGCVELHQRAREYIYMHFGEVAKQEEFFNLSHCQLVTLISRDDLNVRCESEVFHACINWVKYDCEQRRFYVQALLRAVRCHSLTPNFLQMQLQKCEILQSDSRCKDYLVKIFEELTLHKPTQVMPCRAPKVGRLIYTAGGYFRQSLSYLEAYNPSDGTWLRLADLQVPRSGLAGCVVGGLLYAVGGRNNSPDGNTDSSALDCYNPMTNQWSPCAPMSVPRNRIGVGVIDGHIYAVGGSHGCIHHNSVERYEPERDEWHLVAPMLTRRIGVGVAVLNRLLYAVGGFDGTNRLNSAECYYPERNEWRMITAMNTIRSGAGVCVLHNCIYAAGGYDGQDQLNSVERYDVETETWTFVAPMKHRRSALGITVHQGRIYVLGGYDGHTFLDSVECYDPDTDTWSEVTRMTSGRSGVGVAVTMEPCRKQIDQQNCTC
UniProt Q16236: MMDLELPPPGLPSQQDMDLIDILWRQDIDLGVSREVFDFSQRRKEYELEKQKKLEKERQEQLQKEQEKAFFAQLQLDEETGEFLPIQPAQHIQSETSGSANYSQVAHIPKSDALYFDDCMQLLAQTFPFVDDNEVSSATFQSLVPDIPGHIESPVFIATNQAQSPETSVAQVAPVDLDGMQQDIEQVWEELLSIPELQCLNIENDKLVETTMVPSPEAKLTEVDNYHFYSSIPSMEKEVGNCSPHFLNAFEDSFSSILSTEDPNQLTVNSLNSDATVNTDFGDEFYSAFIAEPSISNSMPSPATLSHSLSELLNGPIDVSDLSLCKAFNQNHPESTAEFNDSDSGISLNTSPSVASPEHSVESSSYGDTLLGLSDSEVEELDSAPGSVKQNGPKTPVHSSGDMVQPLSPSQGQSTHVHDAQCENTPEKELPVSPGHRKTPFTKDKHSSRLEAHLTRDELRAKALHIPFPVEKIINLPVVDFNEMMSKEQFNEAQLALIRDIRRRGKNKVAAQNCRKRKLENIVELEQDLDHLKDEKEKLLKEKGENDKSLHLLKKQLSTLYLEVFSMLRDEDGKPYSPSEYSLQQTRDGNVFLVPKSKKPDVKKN

The target of the assay is FLAG-tagged BDH2 (3-Hydroxy butyrate dehydrogenase 2) (human) (UniProt Q9BUT1). Kind of assay: co-IP; HEK293T cells overexpressing Flag-BDH2, HA-Keap1 and Myc-Nrf2; total lysate, immunoprecipitation with anti-Flag antibody at 4 °C overnight, protein A + G agarose, blots with anti-HA and anti-Myc.

Results are given in words; binding and its absence hold for the method and conditions named. Binding seen in cells or lysates may run through a third protein.

Take “HA-tagged Keap1 (Kelch-like ECH-associated protein 1) (from UniProt Q14145 1-624)”: the binding entry was “no binding”.

As to “MYC-tagged Nrf2 (Nuclear factor erythroid 2-related factor 2) (from UniProt Q16236 1-605)”, the binding result was “no binding”.
